Assay results from publication PMC9914899.
Results are given in words; binding and its absence hold for the method and conditions named. In cells and extracts the contact can be indirect. Some results given as binding are weak or reduced against the parent protein; the word gives no strength.

Sequences of proteins named here, by UniProt entry; tags and fusion partners are left off.
UniProt P17676: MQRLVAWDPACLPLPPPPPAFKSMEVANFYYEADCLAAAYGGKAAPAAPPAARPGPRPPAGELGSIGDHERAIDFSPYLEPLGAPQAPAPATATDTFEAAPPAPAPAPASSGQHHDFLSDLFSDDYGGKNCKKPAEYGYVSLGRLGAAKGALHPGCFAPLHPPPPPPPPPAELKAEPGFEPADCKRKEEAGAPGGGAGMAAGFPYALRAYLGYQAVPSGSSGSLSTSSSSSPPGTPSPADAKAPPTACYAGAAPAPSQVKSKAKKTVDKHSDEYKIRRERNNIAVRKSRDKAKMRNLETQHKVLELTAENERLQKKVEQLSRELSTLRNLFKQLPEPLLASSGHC
UniProt Q14209: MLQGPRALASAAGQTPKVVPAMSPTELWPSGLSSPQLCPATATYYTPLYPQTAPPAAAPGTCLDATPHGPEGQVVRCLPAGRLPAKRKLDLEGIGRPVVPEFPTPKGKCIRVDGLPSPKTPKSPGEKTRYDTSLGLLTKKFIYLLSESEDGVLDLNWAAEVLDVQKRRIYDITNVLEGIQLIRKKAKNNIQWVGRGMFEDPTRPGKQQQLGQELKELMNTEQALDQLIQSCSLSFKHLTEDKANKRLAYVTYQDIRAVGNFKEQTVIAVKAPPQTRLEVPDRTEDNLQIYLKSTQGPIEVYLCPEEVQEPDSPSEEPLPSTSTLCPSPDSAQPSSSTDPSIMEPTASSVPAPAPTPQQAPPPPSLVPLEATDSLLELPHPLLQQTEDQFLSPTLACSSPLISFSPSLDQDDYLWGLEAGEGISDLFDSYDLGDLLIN

Experiments:
[1] = target: CCAAT/enhancer binding protein β (human (endogenous in hESC-derived HPCs and LO2 cells)) (UniProt P17676); test: co-IP; lysate of LO2 cells (about 2 x 10^6 cells), pre-cleared with protein A/G agarose beads; IP overnight at 4 °C with mouse anti-human C/EBPβ antibody, then protein A/G agarose beads; immunoblot for E2F2 and C/EBPβ; non-specific IgG as negative control
[2] = target: CCAAT/enhancer binding protein β (human (endogenous in hESC-derived HPCs and LO2 cells)) (UniProt P17676); test: co-IP; lysate of HPCs on day 14 (about 2 x 10^6 cells), pre-cleared with protein A/G agarose beads; IP overnight at 4 °C with mouse anti-human C/EBPβ antibody, then protein A/G agarose beads; immunoblot for E2F2 and C/EBPβ; non-specific IgG as negative control

binding [1]: binds
binding [2]: binds
Substance: E2F2 (from UniProt Q14209 1-437)
